# Record: PubChem BioAssay AID1159578 (Peter MacCallum Cancer Centre, 2015)
# Test: 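siRNA pools altering how lymphatic endothelial cells close a scratch wound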 (primary screen)
# Cells: human lymphatic endothelial cells
# Knock-down reagent: siRNA pool against human genes, 40 nM
# Time to read-out: 48 h after transfection
# Detection: 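High-content imaging of dye-stained cells in a scratch assay measures filled wound area and nuclei per well; duplicate means given as ratio to mock and robust z-score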
# Direction: migration robust z-score: higher = faster migration into the scratch; migration relative to mock: higher = more scratch area covered than mock; nuclei per well: higher = more cells in the well
# Hit rule: 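Migration changed when robust z exceeds 2 or falls below -2 and mean nuclei number is at least 3300; otherwise not called changed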
# Calls: active = migration changed; inactive = no migration change, or too few cells
# The deposit covers about 18,000 reagents; shown is a random part of them. In the full data, about 1,030 (5.7%) were called active. 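Inactive calls also include pools with fewer than 3300 nuclei, whose migration was not assessed.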 Raw values vary from plate to plate and are shown uncorrected. Reagent sequences are not shown.
gene,migration robust z-score,migration class with cell-count check,migration relative to mock,"nuclei per well, duplicate mean",Call
SH2B1,1.06,migration z between -2 and 2; enough cells,1.16,5592,inactive
EPHX4,0.13,migration z between -2 and 2; enough cells,0.83,4709,inactive
TAS2R8,-0.39,migration z between -2 and 2; enough cells,0.78,5868,inactive
CYRIB,0.04,migration z between -2 and 2; enough cells,0.9,4999,inactive
ELP6,-1.57,migration z between -2 and 2; enough cells,0.48,5468,inactive
TESC,-0.75,migration z between -2 and 2; enough cells,0.69,4650,inactive
OR1Q1,-0.12,migration z between -2 and 2; enough cells,0.86,6653,inactive
RGS7,0,migration z between -2 and 2; enough cells,0.8,6218,inactive
SPRED1,0.87,migration z between -2 and 2; enough cells,1.11,6596,inactive
SASH1,0.9,migration z between -2 and 2; enough cells,1.12,6744,inactive
SLC25A35,0.97,migration z between -2 and 2; enough cells,1.14,5921,inactive
WDR76,-0.6,migration z between -2 and 2; enough cells,0.72,6706,inactive
SLC44A5,2.19,migration z above 2; enough cells,1.46,7328,active
NONO,0.34,migration z between -2 and 2; enough cells,0.98,5702,inactive
MUC1,-0.2,migration z between -2 and 2; enough cells,0.83,5564,inactive
NDFIP2,-0.51,migration z between -2 and 2; enough cells,0.75,5812,inactive
MPP1,0.83,migration z between -2 and 2; enough cells,0.97,4372,inactive
ACTN1,-0.16,migration z between -2 and 2; enough cells,0.78,6380,inactive
PEX11A,0.42,migration z between -2 and 2; enough cells,1,4276,inactive
PIP4K2B,-1.61,migration z between -2 and 2; enough cells,0.5,3830,inactive
PCNA,-1.9,migration z between -2 and 2; enough cells,0.44,5124,inactive
CRIPAK (retired record),0.29,migration z between -2 and 2; enough cells,0.96,6604,inactive
UTP18,-0.55,migration z between -2 and 2; enough cells,0.74,5322,inactive
MGAT4A,1.48,migration z between -2 and 2; enough cells,1.09,5978,inactive
FBXO28,0.7,migration z between -2 and 2; enough cells,0.94,5417,inactive
PMFBP1,0.53,migration z between -2 and 2; enough cells,1.02,5986,inactive
ASIC2,0.16,migration z between -2 and 2; enough cells,0.84,4703,inactive
WDR35,0,migration z between -2 and 2; enough cells,0.88,7172,inactive
TP53BP1,0.94,migration z between -2 and 2; enough cells,0.99,6134,inactive
IKZF3,0.18,migration z between -2 and 2; enough cells,0.84,6931,inactive
NDC80,-0.74,migration z between -2 and 2; enough cells,0.69,5548,inactive
HLA-DPA1,0.84,migration z between -2 and 2; enough cells,1.1,6184,inactive
CFLAR,-0.05,migration z between -2 and 2; enough cells,0.8,5539,inactive
ENPP6,0.71,migration z between -2 and 2; enough cells,1.07,6742,inactive
B3GNT3,1.46,migration z between -2 and 2; enough cells,1.08,5436,inactive
HASPIN,-1.77,migration z between -2 and 2; enough cells,0.46,4137,inactive
FRAT1,0.16,migration z between -2 and 2; enough cells,0.84,5457,inactive
MAPRE2,-0.36,migration z between -2 and 2; enough cells,0.79,5372,inactive
KRTAP19-1,-0.34,migration z between -2 and 2; enough cells,0.8,5896,inactive
SF3B4,1.32,migration z between -2 and 2; enough cells,1.23,5490,inactive
RNPC3,1.02,migration z between -2 and 2; enough cells,1.16,6628,inactive
TTLL13,0.69,migration z between -2 and 2; enough cells,1.06,6072,inactive
PRKCI,-0.68,migration z between -2 and 2; enough cells,0.68,4439,inactive
TMED10,-1.34,under 3300 nuclei; migration not judged,0.54,2986,inactive
PITPNM1,-0.34,migration z between -2 and 2; enough cells,0.74,6755,inactive
BASP1,-1.91,migration z between -2 and 2; enough cells,0.38,3634,inactive
PRAMEF4,0.98,migration z between -2 and 2; enough cells,1.14,4763,inactive
ALKBH2,0.54,migration z between -2 and 2; enough cells,0.91,6440,inactive

Next part, starting with the last 8 of the part before.
gene,migration robust z-score,migration class with cell-count check,migration relative to mock,"nuclei per well, duplicate mean",Call
RNPC3,1.02,migration z between -2 and 2; enough cells,1.16,6628,inactive
TTLL13,0.69,migration z between -2 and 2; enough cells,1.06,6072,inactive
PRKCI,-0.68,migration z between -2 and 2; enough cells,0.68,4439,inactive
TMED10,-1.34,under 3300 nuclei; migration not judged,0.54,2986,inactive
PITPNM1,-0.34,migration z between -2 and 2; enough cells,0.74,6755,inactive
BASP1,-1.91,migration z between -2 and 2; enough cells,0.38,3634,inactive
PRAMEF4,0.98,migration z between -2 and 2; enough cells,1.14,4763,inactive
ALKBH2,0.54,migration z between -2 and 2; enough cells,0.91,6440,inactive
ATP6V1C1,-0.29,migration z between -2 and 2; enough cells,0.75,5790,inactive
PKM,-2.25,under 3300 nuclei; migration not judged,0.37,3292,inactive
FHL5,0.88,migration z between -2 and 2; enough cells,0.98,6197,inactive
GHDC,-0.07,migration z between -2 and 2; enough cells,0.87,5752,inactive
OR3A3,0.43,migration z between -2 and 2; enough cells,1,5836,inactive
DCAF6,2.39,migration z above 2; enough cells,1.5,6794,active
LALBA,-0.24,migration z between -2 and 2; enough cells,0.76,7153,inactive
NUP62CL,0.56,migration z between -2 and 2; enough cells,1.03,6356,inactive
ODAPH,-2.4,migration z below -2; enough cells,0.26,6112,active
LRRC14B,-0.12,migration z between -2 and 2; enough cells,0.86,6842,inactive
FRRS1,-1.87,migration z between -2 and 2; enough cells,0.4,5462,inactive
AKAP17A,-0.99,migration z between -2 and 2; enough cells,0.63,5646,inactive
SHISAL2A,-0.9,migration z between -2 and 2; enough cells,0.65,4876,inactive
OR6B3,-0.12,migration z between -2 and 2; enough cells,0.85,5639,inactive
HERC2,1.71,migration z between -2 and 2; enough cells,1.13,6582,inactive
LRRC52,0.67,migration z between -2 and 2; enough cells,1.07,5290,inactive
MYRFL,2.11,migration z above 2; enough cells,1.42,6222,active
FNDC3A,0.14,migration z between -2 and 2; enough cells,0.92,6568,inactive
CR2,0.36,migration z between -2 and 2; enough cells,0.88,5400,inactive
MPP4,-0.1,migration z between -2 and 2; enough cells,0.78,6394,inactive
TRIM61,1.38,migration z between -2 and 2; enough cells,1.07,6540,inactive
CACTIN,-0.8,migration z between -2 and 2; enough cells,0.68,6075,inactive
ZMYND11,0.18,migration z between -2 and 2; enough cells,0.84,6522,inactive
KPNB1,-1.61,migration z between -2 and 2; enough cells,0.5,4914,inactive
AADAT,0,migration z between -2 and 2; enough cells,0.8,5745,inactive
